Laboratory results taken from patent US20250368751A1.
Results are given in words; binding and its absence hold for the method and conditions named. Binding calls can cover weak binding; strength is not graded here. Tags and fused reporters may be left off the sequences shown.

Biological target: human IL2 (Proleukin) (human)
Assay: complex formed by mixing antibody and IL2 (mass ratio 1:7, 30 min, room temperature); binding itself not measured

B1: Fc-mutated humanized IL2 monoclonal antibody hu22F8mu (antibody, human IgG4 S228P, kappa)
heavy: QVQLVQSGAEVKKPGASVKVSCKASGFNIKNTYMHWVRQAPGQGLEWMGRIDPANGNTKYAPKFQGRVTMTRDTSTSTVYMELSSLRSEDTAVYYCGRSRGYAMDYWGQGTTVTVSSASTKGPSVFPLAPCSRSTSESTAALGCLVKDYFPEPVTVSWNSGALTSGVHTFPAVLQSSGLYSLSSVVTVPSSSLGTKTYTCNVDHKPSNTKVDKRVESKYGPPCPPCPAPEFLGGPSVFLFPPKPKDTLMISRTPEVTCVVVDVSQEDPEVQFNWYVDGVEVHNAKTKPREEQFNSTYRVVSVLTVLAQDWLNGKEYKCKVSNKGLPSSIEKTISKAKGQPREPQVYTLPPSQEEMTKNQVSLTCLVKGFYPSDIAVEWESNGQPENNYKTTPPVLDSDGSFFLYSRLTVDKSRWQEGNVFSCSVMHEALHNQYTQKSLSLSLGK
light: DIQMTQSPSSLSASVGDRVTITCKASDHINNWLAWYQQKPGKAPKLLISGATSLETGVPSRFSGSGSGTDYTLTISSLQPEDFATYYCQQYWSTPTFGGGTKLEIKRTVAAPSVFIFPPSDEQLKSGTASVVCLLNNFYPREAKVQWKVDNALQSGNSQESVTEQDSKDSTYSLSSTLTLSKADYEKHKVYACEVTHQGLSSPVTKSFNRGEC
  binding: binds
